PMC12120022, “Discovery and chemical optimisation of a potent, Bi-cyclic antimicrobial inhibitor of Escherichia coli PBP3” (Communications Biology, 2025)

Legend:
[1] = test system: Pseudomonas aeruginosa NCTC 13437; assay: MIC; assay type: cell-based; details: NCTC13437, caMHB, replicates listed
Protocol: (§1) Minimal inhibition concentration (MIC) assays were performed in accordance with CLSI standards, using cation-adjusted Mueller Hinton broth (caMHB; Sigma Aldrich) unless otherwise specified. Induction of pore expression in hyperporinated strains E. coli GKCW101 and GKCW102 was performed by addition of 0.1% (w/v) L-arabinose to cultures at OD600 ~ 0.3, with caMHB as the culture medium.

[2] = test system: Klebsiella pneumoniae KPNIH1; assay: MIC; assay type: cell-based; details: caMHB, replicates listed
Protocol: as §1

C[C@@H](O)[C@H]1C(=O)N2C(C(=O)O)=C(S[C@@H]3CN[C@H](C(=O)N(C)C)C3)[C@H](C)[C@H]12 [Meropenem, reference compound]
MIC [1]: > 2 µg/mL
MIC [2]: > 2 µg/mL
